Consider 21 molecules from patent US20060257938A1, “Method of screening for drugs that block ligand binding to a lipid binding protein” (priority 2005, published 2006).

A short description of this data set: Baseline fluorescence ratio Ro of probe in absence of analyte. As to conditions: baseline fluorescence ratio of probe.

B1: 74Q 72A 73F (protein, listed as Rattus norvegicus)
chain: AFDGTWKVDRNENYEKFMEKMGINVVKRKLGAHDNLKLTITQEGNKFTVKESSNFRNIDVVFELGVDFAYSAFQGTELTGTWTMEGNKLVGKFKRVDNGKELIAVREISGNELIQTYTYEGVEAKRIFKKE
modifications: PEPTIDE (1)...(131) wild-type rat intestinal fatty acid binding protein
As to B1, the Ro worked out at 0.251. Besides, where the note is “no fatty acid”, the Ro is 0.251.

B2: 18I 31Y 72A (protein, listed as Rattus norvegicus)
chain: AFDGTWKVDRNENYEKFIEKMGINVVKRKLYAHDNLKLTITQEGNKFTVKESSNFRNIDVVFELGVDFAYSAADGTELTGTWTMEGNKLVGKFKRVDNGKELIAVREISGNELIQTYTYEGVEAKRIFKKE
modifications: PEPTIDE (1)...(131) wild-type rat intestinal fatty acid binding protein
On to B2, for which the Ro is on record as 0.345.

B3: 18V 31A 55I 72A (protein, listed as Rattus norvegicus)
chain: AFDGTWKVDRNENYEKFVEKMGINVVKRKLAAHDNLKLTITQEGNKFTVKESSNIRNIDVVFELGVDFAYSAADGTELTGTWTMEGNKLVGKFKRVDNGKELIAVREISGNELIQTYTYEGVEAKRIFKKE
modifications: PEPTIDE (1)...(131) wild-type rat intestinal fatty acid binding protein
In the case of B3, the Ro came to 0.345.

B4: 72T 73I 74A (protein, listed as Rattus norvegicus)
chain: AFDGTWKVDRNENYEKFMEKMGINVVKRKLGAHDNLKLTITQEGNKFTVKESSNFRNIDVVFELGVDFAYSTIAGTELTGTWTMEGNKLVGKFKRVDNGKELIAVREISGNELIQTYTYEGVEAKRIFKKE
modifications: PEPTIDE (1)...(131) wild-type rat intestinal fatty acid binding protein
As to B4, the Ro is listed as 0.293.

B5: 14R 18L 31S 73F 117E 72A (protein, listed as Rattus norvegicus)
chain: AFDGTWKVDRNENREKFLEKMGINVVKRKLSAHDNLKLTITQEGNKFTVKESSNFRNIDVVFELGVDFAYSAFDGTELTGTWTMEGNKLVGKFKRVDNGKELIAVREISGNELIQTETYEGVEAKRIFKKE
modifications: PEPTIDE (1)...(131) wild-type rat intestinal fatty acid binding protein
Regarding B5, the Ro is 0.524.

B6: 72A 74N (protein, listed as Rattus norvegicus)
chain: AFDGTWKVDRNENYEKFMEKMGINVVKRKLGAHDNLKLTITQEGNKFTVKESSNFRNIDVVFELGVDFAYSAANGTELTGTWTMEGNKLVGKFKRVDNGKELIAVREISGNELIQTYTYEGVEAKRIFKKE
modifications: PEPTIDE (1)...(131) wild-type rat intestinal fatty acid binding protein
On to B6, for which the Ro was found to be 0.162. Besides, for the setting “no fatty acid”, the Ro was determined as 0.162.

B7: 18I 31Y 73G 72A (protein, listed as Rattus norvegicus)
chain: AFDGTWKVDRNENYEKFIEKMGINVVKRKLYAHDNLKLTITQEGNKFTVKESSNFRNIDVVFELGVDFAYSAGDGTELTGTWTMEGNKLVGKFKRVDNGKELIAVREISGNELIQTYTYEGVEAKRIFKKE
modifications: PEPTIDE (1)...(131) wild-type rat intestinal fatty acid binding protein
For B7, the Ro is 0.298.

B8: 72T 74S (protein, listed as Rattus norvegicus)
chain: AFDGTWKVDRNENYEKFMEKMGINVVKRKLGAHDNLKLTITQEGNKFTVKESSNFRNIDVVFELGVDFAYSTASGTELTGTWTMEGNKLVGKFKRVDNGKELIAVREISGNELIQTYTYEGVEAKRIFKKE
modifications: PEPTIDE (1)...(131) wild-type rat intestinal fatty acid binding protein
Turning to B8, the Ro is 0.251.

B9: 38Y, 72A (protein, listed as Rattus norvegicus)
chain: AFDGTWKVDRNENYEKFMEKMGINVVKRKLGAHDNLKYTITQEGNKFTVKESSNFRNIDVVFELGVDFAYSAADGTELTGTWTMEGNKLVGKFKRVDNGKELIAVREISGNELIQTYTYEGVEAKRIFKKE
modifications: PEPTIDE (1)...(131) wild-type rat intestinal fatty acid binding protein
With B9, the Ro was found to be 0.213.

B10: 14R 18L 73L 117D 72A (protein, listed as Rattus norvegicus)
chain: AFDGTWKVDRNENREKFLEKMGINVVKRKLGAHDNLKLTITQEGNKFTVKESSNFRNIDVVFELGVDFAYSALDGTELTGTWTMEGNKLVGKFKRVDNGKELIAVREISGNELIQTDTYEGVEAKRIFKKE
modifications: PEPTIDE (1)...(131) wild-type rat intestinal fatty acid binding protein
As for B10, the Ro turned out to be 0.647. The Ro (no fatty acid) is reported as 0.647.

B11: 14M 18L 31W 73I 117G 72A (protein, listed as Rattus norvegicus)
chain: AFDGTWKVDRNENMEKFLEKMGINVVKRKLWAHDNLKLTITQEGNKFTVKESSNFRNIDVVFELGVDFAYSAIDGTELTGTWTMEGNKLVGKFKRVDNGKELIAVREISGNELIQTGTYEGVEAKRIFKKE
modifications: PEPTIDE (1)...(131) wild-type rat intestinal fatty acid binding protein
In the case of B11, the Ro is 0.580. The Ro (no fatty acid) is 0.580.

B12: 38Y 117A 72A (protein, listed as Rattus norvegicus)
chain: AFDGTWKVDRNENYEKFMEKMGINVVKRKLGAHDNLKYTITQEGNKFTVKESSNFRNIDVVFELGVDFAYSAADGTELTGTWTMEGNKLVGKFKRVDNGKELIAVREISGNELIQTATYEGVEAKRIFKKE
modifications: PEPTIDE (1)...(131) wild-type rat intestinal fatty acid binding protein
For the molecule B12, the Ro was found to be 0.350. For the same molecule, the Ro (no fatty acid) stood at 0.350.

B13: 72S 73V 74A (protein, listed as Rattus norvegicus)
chain: AFDGTWKVDRNENYEKFMEKMGINVVKRKLGAHDNLKLTITQEGNKFTVKESSNFRNIDVVFELGVDFAYSSVAGTELTGTWTMEGNKLVGKFKRVDNGKELIAVREISGNELIQTYTYEGVEAKRIFKKE
modifications: PEPTIDE (1)...(131) wild-type rat intestinal fatty acid binding protein
On to B13, for which the Ro is reported as 0.340. For the same molecule, under “no fatty acid”, the Ro is 0.340.

B14: 38H 62W 106V 117A 72A (protein, listed as Rattus norvegicus)
chain: AFDGTWKVDRNENYEKFMEKMGINVVKRKLGAHDNLKHTITQEGNKFTVKESSNFRNIDVVWELGVDFAYSAADGTELTGTWTMEGNKLVGKFKRVDNGKELIAVVEISGNELIQTATYEGVEAKRIFKKE
modifications: PEPTIDE (1)...(131) wild-type rat intestinal fatty acid binding protein
For the molecule B14, the Ro came out at 0.284.

B15: 72T 73G 74I (protein, listed as Rattus norvegicus)
chain: AFDGTWKVDRNENYEKFMEKMGINVVKRKLGAHDNLKLTITQEGNKFTVKESSNFRNIDVVFELGVDFAYSTGIGTELTGTWTMEGNKLVGKFKRVDNGKELIAVREISGNELIQTYTYEGVEAKRIFKKE
modifications: PEPTIDE (1)...(131) wild-type rat intestinal fatty acid binding protein
On to B15, for which the Ro was determined as 0.311.

B16: 18I 31M 55M 72A (protein, listed as Rattus norvegicus)
chain: AFDGTWKVDRNENYEKFIEKMGINVVKRKLMAHDNLKLTITQEGNKFTVKESSNMRNIDVVFELGVDFAYSAADGTELTGTWTMEGNKLVGKFKRVDNGKELIAVREISGNELIQTYTYEGVEAKRIFKKE
modifications: PEPTIDE (1)...(131) wild-type rat intestinal fatty acid binding protein
Consider B16, for which the Ro came out at 0.352.

B17: 72S 74A (protein, listed as Rattus norvegicus)
chain: AFDGTWKVDRNENYEKFMEKMGINVVKRKLGAHDNLKLTITQEGNKFTVKESSNFRNIDVVFELGVDFAYSSAAGTELTGTWTMEGNKLVGKFKRVDNGKELIAVREISGNELIQTYTYEGVEAKRIFKKE
modifications: PEPTIDE (1)...(131) wild-type rat intestinal fatty acid binding protein
For the molecule B17, the Ro was found to be 0.208. In addition, the Ro (no fatty acid) is given as 0.208.

B18: 14L 18L 31S 73W 117V 72A (protein, listed as Rattus norvegicus)
chain: AFDGTWKVDRNENLEKFLEKMGINVVKRKLSAHDNLKLTITQEGNKFTVKESSNFRNIDVVFELGVDFAYSAWDGTELTGTWTMEGNKLVGKFKRVDNGKELIAVREISGNELIQTVTYEGVEAKRIFKKE
modifications: PEPTIDE (1)...(131) wild-type rat intestinal fatty acid binding protein
Take B18: the Ro was found to be 0.264. Where the note is “no fatty acid”, the Ro was 0.264.

B19: 18I 31F 72A (protein, listed as Rattus norvegicus)
chain: AFDGTWKVDRNENYEKFIEKMGINVVKRKLFAHDNLKLTITQEGNKFTVKESSNFRNIDVVFELGVDFAYSAADGTELTGTWTMEGNKLVGKFKRVDNGKELIAVREISGNELIQTYTYEGVEAKRIFKKE
modifications: PEPTIDE (1)...(131) wild-type rat intestinal fatty acid binding protein
On to B19, for which the Ro was determined as 0.314.

B20: 72A 73P 74E (protein, listed as Rattus norvegicus)
chain: AFDGTWKVDRNENYEKFMEKMGINVVKRKLGAHDNLKLTITQEGNKFTVKESSNFRNIDVVFELGVDFAYSAPEGTELTGTWTMEGNKLVGKFKRVDNGKELIAVREISGNELIQTYTYEGVEAKRIFKKE
modifications: PEPTIDE (1)...(131) wild-type rat intestinal fatty acid binding protein
Take B20: the Ro worked out at 0.199.

B21: 72E 73V 74A (protein, listed as Rattus norvegicus)
chain: AFDGTWKVDRNENYEKFMEKMGINVVKRKLGAHDNLKLTITQEGNKFTVKESSNFRNIDVVFELGVDFAYSEVAGTELTGTWTMEGNKLVGKFKRVDNGKELIAVREISGNELIQTYTYEGVEAKRIFKKE
modifications: PEPTIDE (1)...(131) wild-type rat intestinal fatty acid binding protein
Regarding B21, the Ro was found to be 0.296. The Ro (no fatty acid) was 0.296.
